Reference: patent publication US20240218022A1, “ANTI-VISTA MACROCYCLIC PEPTIDES AND COMPOSITIONS” (BRISTOL-MYERS SQUIBB COMPANY, priority 2022, published 2024)
Read-outs that look alike come from different tables or passages of the source. At least one compound was matched to its structure with a doubt left. Starred links: 1 amine or outer side, 2 acyl side, 3 side chain; linkers in the order of their positions; H or OH if unused. Positions of bridges follow the written chain, without caps; N, C: chain ends. Non-standard residues stand in square brackets, D forms with d. Residues, ends and D or L forms follow the SMILES beside them. ξ: configuration not given here. Phe(3-COOH) = N[C@@H](Cc1cccc(C(=O)O)c1)C(=O)O; Phe(3-Me) = Cc1cccc(C[C@H](N)C(=O)O)c1; γGlu = O=C(O)[C@H](CCC(=O)[*:2])N[*:1]; 2Nal = N[C@@H](Cc1ccc2ccccc2c1)C(=O)O; βAsp = O=C(O)[C@H](CC(=O)[*:2])N[*:1]; Cit = NC(=O)NCCC[C@H](N)C(=O)O; NMeL = CN[C@@H](CC(C)C)C(=O)O; Ahp(2) = CCCCC[C@H](N)C(=O)O; NMeNle = CCCC[C@H](NC)C(=O)O; Tle = CC(C)(C)[C@H](N)C(=O)O; NHexGly = CCCCCCNCC(=O)O; Nle = CCCC[C@H](N)C(=O)O; Orn = NCCC[C@H](N)C(=O)O; Aun = NCCCCCCCCCCC(=O)O; Dap = NC[C@H](N)C(=O)O; AEEA = NCCOCCOCC(=O)O; ξP = O=C(O)C1CCCN1

Target: T1, mouse VISTA (mVISTA) (Mus musculus, UniProt Q9D659)
T1 construct: expressed in transfected cells; host or cells: Human embryonic kidney 293T cells
T1 sequence (Q9D659 33-308): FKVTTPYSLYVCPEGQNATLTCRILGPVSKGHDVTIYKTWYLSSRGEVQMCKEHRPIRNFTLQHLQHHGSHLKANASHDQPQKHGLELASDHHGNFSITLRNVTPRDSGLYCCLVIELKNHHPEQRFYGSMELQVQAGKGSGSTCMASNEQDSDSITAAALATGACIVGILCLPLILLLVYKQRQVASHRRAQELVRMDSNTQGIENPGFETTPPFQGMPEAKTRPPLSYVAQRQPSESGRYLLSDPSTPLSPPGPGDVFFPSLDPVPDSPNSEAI
Assay: Cell-Based Binding High-Content Assay For mVISTA (HC CBA mVISTA)
Procedure, shortened: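 This high-content binding assay uses HEK293T cells expressing murine VISTA, measuring displacement of 2 nM biotinylated peptide by fluorescent streptavidin imaging. IC50 values come from four-parameter logistic fitting.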

SMILES: CCCCCCN1CC(=O)N[C@@H](Cc2ccc(O)cc2)C(=O)N[C@@H](Cc2cccc(C(=O)O)c2)C(=O)N[C@@H](CC(N)=O)C(=O)N[C@@H](CCCNC(=N)N)C(=O)N(C)[C@@H](CCCC)C(=O)N[C@@H](CCCCC)C(=O)N2CCC[C@H]2C(=O)N[C@@H](C(C)(C)C)C(=O)N[C@@H](CC(=O)O)C(=O)N[C@H](C(N)=O)CSCC(=O)N[C@@H](Cc2ccccc2)C(=O)N[C@@H](Cc2c[nH]c3ccccc23)C(=O)N[C@@H](CC(=O)O)C1=O [compound 1170] ({CH2CO}-FWD[NHexGly]Y[Phe(3-COOH)]NR[NMeNle][Ahp(2)]P[Tle]DC-NH2; thioether N-14)
- IC50 (read-out: HC CBA mVISTA IC50): 43 nM

SMILES: CCCCCCN1CC(=O)N[C@@H](Cc2ccc(O)cc2)C(=O)N[C@@H](CCCC)C(=O)N[C@@H](CC(N)=O)C(=O)N[C@@H](CCCNC(=N)N)C(=O)N(C)[C@@H](CCCC)C(=O)N[C@@H](CCCCC)C(=O)N2CCC[C@@H]2C(=O)N[C@@H](C(C)(C)C)C(=O)N[C@@H](CO)C(=O)N[C@H](C(=O)NCC(=O)N[C@@H](CC(=O)NCCOCCOCC(=O)N[C@@H](CC(=O)O)C(=O)NCCOCCOCC(=O)NCCCCCCCCCCC(=O)O)C(=O)O)CSCC(=O)N[C@@H](Cc2ccccc2)C(=O)N[C@@H](Cc2cccc(C)c2)C(=O)N[C@@H](CC(=O)O)C1=O [compound 2113] ({CH2CO}-F[Phe(3-Me)]D[NHexGly]Y[Nle]NR[NMeNle][Ahp(2)][dP][Tle]SCG[βAsp][AEEA]D[AEEA][Aun]-OH; thioether N-14)
- IC50 (read-out: HC CBA mVISTA IC50): 27.6 nM

SMILES: CCCCCCN1CC(=O)N[C@@H](Cc2ccc(O)cc2)C(=O)N[C@@H](CCCC)C(=O)N[C@@H](CC(N)=O)C(=O)N[C@@H](CCCNC(N)=O)C(=O)N(C)[C@@H](CC(C)C)C(=O)N[C@@H](CCCCC)C(=O)N2CCCC2C(=O)N[C@@H](C(C)C)C(=O)N[C@@H](CO)C(=O)N[C@H](C(=O)NCCOCCOCC(=O)N[C@@H](CC(=O)O)C(=O)NCCOCCOCC(=O)NCCCCCCCCCCC(=O)O)CSCC(=O)N[C@@H](Cc2ccccc2)C(=O)N[C@@H](Cc2c[nH]c3ccccc23)C(=O)N[C@@H](CC(=O)O)C1=O (stereo partly shown) [compound 2310] ({CH2CO}-FWD[NHexGly]Y[Nle]N[Cit][NMeL][Ahp(2)][ξP]VSC[AEEA]D[AEEA][Aun]-OH; thioether N-14)
- IC50 (cell-based binding high-content assay, read-out: HC CBA miPrISTA IC50): 24.5 nM

SMILES: CCCCCCN1CC(=O)N[C@@H](Cc2ccc(O)cc2)C(=O)N[C@@H](CCCC)C(=O)N[C@@H](CC(N)=O)C(=O)N[C@@H](CCCNC(=N)N)C(=O)N(C)[C@@H](CC(C)C)C(=O)N[C@@H](CCCCC)C(=O)N2CCC[C@H]2C(=O)N[C@@H](C(C)C)C(=O)N[C@@H](CC(=O)O)C(=O)N[C@H](C(=O)N[C@@H](CC(=O)NCCOCCOCC(=O)NCCCCCCCCCCC(=O)O)C(=O)O)CSCC(=O)N[C@@H](Cc2ccccc2)C(=O)N[C@@H](Cc2c[nH]c3ccccc23)C(=O)N[C@@H](CC(=O)O)C1=O [Example 2154] ({CH2CO}-FWD[NHexGly]Y[Nle]NR[NMeL][Ahp(2)]PVDC[βAsp][AEEA][Aun]-OH; thioether N-14)
- IC50 (read-out: HC CBA mVISTA IC50): 33.4 nM

SMILES: CCCCCCN1CC(=O)N[C@@H](Cc2ccc(O)cc2)C(=O)N[C@@H](CC(C)C)C(=O)N[C@@H](CC(N)=O)C(=O)N[C@@H](CCCNC(=N)N)C(=O)N[C@@H](CC(C)C)C(=O)N[C@@H](CCCCC)C(=O)N2CCC[C@@H]2C(=O)N[C@@H](C(C)C)C(=O)N[C@@H](C(C)C)C(=O)N[C@H](C(=O)NCC(=O)N[C@@H](CCC(=O)NCCOCCOCC(=O)N[C@@H](CC(=O)O)C(=O)NCCOCCOCC(=O)NCCCCCCCCCCC(=O)O)C(=O)O)CSCC(=O)N[C@@H](Cc2ccccc2)C(=O)N[C@@H](Cc2ccc(O)cc2)C(=O)N[C@@H](CC(=O)O)C1=O [compound 2122] ({CH2CO}-FYD[NHexGly]YLNRL[Ahp(2)][dP]VVCG[γGlu][AEEA]D[AEEA][Aun]-OH; thioether N-14)
- IC50 (read-out: HC CBA mVISTA IC50): 17.8 nM

SMILES: CCCCCCN1CC(=O)N[C@@H](Cc2ccc(O)cc2)C(=O)N[C@@H](CC(C)C)C(=O)N[C@@H](CC(N)=O)C(=O)N[C@@H](CCCNC(=N)N)C(=O)N(C)[C@@H](CCCC)C(=O)N[C@@H](CCCCC)C(=O)N2CCC[C@H]2C(=O)N[C@@H](C(C)(C)C)C(=O)N[C@@H](CO)C(=O)N[C@H](C(=O)N[C@@H](CN)C(=O)NCCOCCOCC(=O)N[C@@H](CC(=O)O)C(=O)NCCOCCOCC(=O)NCCCCCCCCCCC(=O)O)CSCC(=O)N[C@@H](Cc2ccccc2)C(=O)N[C@@H](Cc2ccc(O)cc2)C(=O)N[C@@H](CC(=O)O)C1=O [compound 2078] ({CH2CO}-FYD[NHexGly]YLNR[NMeNle][Ahp(2)]P[Tle]SC[Dap][AEEA]D[AEEA][Aun]-OH; thioether N-14)
- IC50 (cell-based binding high-content assay, mVISTA, read-out: HC CBA miPrISTA IC50): 40.2 nM

SMILES: CCCCCCN1CC(=O)N[C@@H](Cc2ccc(O)cc2)C(=O)N[C@@H](CCCC)C(=O)N[C@@H](CC(=O)O)C(=O)N[C@@H](CCCNC(=N)N)C(=O)N[C@@H](CC(C)C)C(=O)N[C@@H](CCCCC)C(=O)N2CCC[C@H]2C(=O)N[C@@H](C(C)C)C(=O)N[C@@H](CC(N)=O)C(=O)N[C@H](C(=O)NCCOCCOCC(=O)N[C@@H](CCC(=O)NCCOCCOCC(=O)NCCCCCCCCCCC(=O)O)C(=O)O)CSCC(=O)N[C@@H](Cc2ccccc2)C(=O)N[C@@H](Cc2ccc(O)cc2)C(=O)N[C@@H](CC(=O)O)C1=O [compound 2220] ({CH2CO}-FYD[NHexGly]Y[Nle]DRL[Ahp(2)]PVNC[AEEA][γGlu][AEEA][Aun]-OH; thioether N-14)
- IC50 (read-out: HC CBA mVISTA IC50): 19.9 nM

SMILES: CCCCCCN1CC(=O)N[C@@H](Cc2ccc(O)cc2)C(=O)N[C@@H](CC(C)C)C(=O)N[C@@H](CC(N)=O)C(=O)N[C@@H](CCCNC(=N)N)C(=O)N(C)[C@@H](CCCC)C(=O)N[C@@H](CCCCC)C(=O)N2CCC[C@H]2C(=O)N[C@@H](C(C)(C)C)C(=O)N[C@@H](CC(=O)O)C(=O)N[C@H](C(=O)N[C@@H](CC(=O)NCCOCCOCC(=O)N[C@@H](CCCN)C(=O)NCCOCCOCC(=O)NCCCCCCCCCCC(=O)O)C(=O)O)CSCC(=O)N[C@@H](Cc2ccccc2)C(=O)N[C@@H](Cc2ccc(O)cc2)C(=O)N[C@@H](CC(=O)O)C1=O [compound 2335] ({CH2CO}-FYD[NHexGly]YLNR[NMeNle][Ahp(2)]P[Tle]DC[βAsp][AEEA][Orn][AEEA][Aun]-OH; thioether N-14)
- IC50 (cell-based binding high-content assay, read-out: HC CBA mVISTA IC50): 16.7 nM

SMILES: CCCCCCN1CC(=O)N[C@@H](Cc2ccc(O)cc2)C(=O)N[C@@H](CCCC)C(=O)N[C@@H](CC(N)=O)C(=O)N[C@@H](CCCNC(=N)N)C(=O)N(C)[C@@H](CCCC)C(=O)N[C@@H](CCCCC)C(=O)N2CCC[C@H]2C(=O)N[C@@H](C(C)C)C(=O)N[C@@H](CC(=O)O)C(=O)N[C@H](C(=O)N[C@@H](CC(=O)NCCOCCOCC(=O)NCCCCCCCCCCC(=O)O)C(=O)O)CSCC(=O)N[C@@H](Cc2ccccc2)C(=O)N[C@@H](Cc2c[nH]c3ccccc23)C(=O)N[C@@H](CC(=O)O)C1=O [Example 2149] ({CH2CO}-FWD[NHexGly]Y[Nle]NR[NMeNle][Ahp(2)]PVDC[βAsp][AEEA][Aun]-OH; thioether N-14)
- IC50 (read-out: HC CBA mVISTA IC50): 27.3 nM

SMILES: CCCCCCN1CC(=O)N[C@@H](Cc2ccc(O)cc2)C(=O)N[C@@H](CCCC)C(=O)N[C@@H](CC(N)=O)C(=O)N[C@@H](CCCNC(=N)N)C(=O)N(C)[C@@H](CCCC)C(=O)N[C@@H](CCCCC)C(=O)N2CCC[C@H]2C(=O)N[C@@H](C(C)C)C(=O)N[C@@H](CO)C(=O)N[C@H](C(=O)N[C@@H](CC(=O)NCCOCCOCC(=O)NCCCCCCCCCCC(=O)O)C(=O)O)CSCC(=O)N[C@@H](Cc2ccc3ccccc3c2)C(=O)N[C@@H](Cc2ccc(O)cc2)C(=O)N[C@@H](CC(=O)O)C1=O [Example 2167] ({CH2CO}-[2Nal]YD[NHexGly]Y[Nle]NR[NMeNle][Ahp(2)]PVSC[βAsp][AEEA][Aun]-OH; thioether N-14)
- IC50 (read-out: HC CBA mVISTA IC50): 24.9 nM
